PubChem BioAssay AID1259254 | NCATS – 2017
This is a random part of about 59,000 deposited reagents. Over the whole deposit, about 1,550 (2.6%) got an active call. 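G2 share is only a proxy for re-replication; each gene was hit by three separate siRNAs, and active genes were retested.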 Raw values vary from plate to plate and are shown uncorrected. Reagents against one gene are numbered here. Not stated in the record: the amount of reagent.

Purpose: 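Genome-wide screen for genes that prevent DNA re-replication in cancer cells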 (primary screen)
System: human HCT116 colorectal cancer cells
Knock-down reagent: single siRNA against human genes
Duration: 3 days
Measurement: 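Nuclei stained with Hoechst and imaged; cell-cycle phase assigned by DNA content; G2 share scaled per plate, non-targeting siRNA 0%, GMNN siRNA 100%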
Direction: G2 robust z-score and G2 cells, % of GMNN control: higher = more G2 cells, more excess DNA replication; raw share of cells in G2: higher = larger share of cells with G2 DNA content
Rule for the call: 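An siRNA counts as active if its G2 robust z-score lies at least 5 MADs above the screen median; here such calls match roughly 38% of GMNN control or more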

| gene | siRNA no. | G2 robust z-score | G2 cells, % of GMNN control | raw share of cells in G2 (%) | activity call |
| --- | --- | --- | --- | --- | --- |
| GALNT10 (polypeptide N-acetylgalactosaminyltransferase 10) | 1 | -0.458 | -0.252 | 6.32 | inactive |
| GALNT10 (polypeptide N-acetylgalactosaminyltransferase 10) | 2 | 0.226 | 4.56 | 6.07 | inactive |
| GALNT10 (polypeptide N-acetylgalactosaminyltransferase 10) | 3 | -0.482 | -0.422 | 4.16 | inactive |
| PDHX (pyruvate dehydrogenase complex component X) | 1 | -0.213 | 1.47 | 4.81 | inactive |
| PDHX (pyruvate dehydrogenase complex component X) | 2 | 0.427 | 5.97 | 8.12 | inactive |
| PDHX (pyruvate dehydrogenase complex component X) | 3 | 7.19 | 53.6 | 22.1 | active |
| MED13L (mediator complex subunit 13L) | 1 | -0.725 | -2.14 | 3.61 | inactive |
| MED13L (mediator complex subunit 13L) | 2 | -0.416 | 0.0388 | 3.96 | inactive |
| MED13L (mediator complex subunit 13L) | 3 | 1.09 | 10.7 | 7.02 | inactive |
| NIPAL3 (NIPA like domain containing 3) | 1 | -0.554 | -0.934 | 3.98 | inactive |
| NIPAL3 (NIPA like domain containing 3) | 2 | 2.95 | 23.7 | 15.8 | inactive |
| NIPAL3 (NIPA like domain containing 3) | 3 | 0.148 | 4.01 | 4.3 | inactive |
| CUEDC1 (CUE domain containing 1) | 1 | 0.471 | 6.28 | 6.1 | inactive |
| CUEDC1 (CUE domain containing 1) | 2 | -0.496 | -0.524 | 3.31 | inactive |
| CUEDC1 (CUE domain containing 1) | 3 | -0.633 | -1.49 | 4.17 | inactive |
| ALDH1B1 (aldehyde dehydrogenase 1 family member B1) | 1 | -0.357 | 0.455 | 4.16 | inactive |
| ALDH1B1 (aldehyde dehydrogenase 1 family member B1) | 2 | -0.215 | 1.45 | 5.21 | inactive |
| ALDH1B1 (aldehyde dehydrogenase 1 family member B1) | 3 | -0.413 | 0.0624 | 5.1 | inactive |
| MOK (MOK protein kinase) | 1 | -1.03 | -4.29 | 4.19 | inactive |
| MOK (MOK protein kinase) | 2 | 2.52 | 20.7 | 12.4 | inactive |
| MOK (MOK protein kinase) | 3 | -1.07 | -4.56 | 2.42 | inactive |
| SOCS6 (suppressor of cytokine signaling 6) | 1 | -0.822 | -2.81 | 3.7 | inactive |
| SOCS6 (suppressor of cytokine signaling 6) | 2 | -0.554 | -0.93 | 4.94 | inactive |
| SOCS6 (suppressor of cytokine signaling 6) | 3 | -0.341 | 0.568 | 4.8 | inactive |
| ZNF91 (zinc finger protein 91) | 1 | 0.928 | 9.5 | 6.69 | inactive |
| ZNF91 (zinc finger protein 91) | 2 | -0.0765 | 2.43 | 7.07 | inactive |
| ZNF91 (zinc finger protein 91) | 3 | -0.531 | -0.771 | 3.02 | inactive |
| SUMF2 (sulfatase modifying factor 2) | 1 | -0.673 | -1.76 | 3.75 | inactive |
| SUMF2 (sulfatase modifying factor 2) | 2 | -0.299 | 0.863 | 4.31 | inactive |
| SUMF2 (sulfatase modifying factor 2) | 3 | 0.0161 | 3.08 | 4.38 | inactive |

Next part (2 carried over from the part before).
| gene | siRNA no. | G2 robust z-score | G2 cells, % of GMNN control | raw share of cells in G2 (%) | activity call |
| --- | --- | --- | --- | --- | --- |
| SUMF2 (sulfatase modifying factor 2) | 2 | -0.299 | 0.863 | 4.31 | inactive |
| SUMF2 (sulfatase modifying factor 2) | 3 | 0.0161 | 3.08 | 4.38 | inactive |
| CAPSL (calcyphosine like) | 1 | -1.17 | -5.24 | 2.78 | inactive |
| CAPSL (calcyphosine like) | 2 | -0.129 | 2.06 | 5.57 | inactive |
| CAPSL (calcyphosine like) | 3 | -0.0439 | 2.66 | 7.23 | inactive |
| MSMP (microseminoprotein, prostate associated) | 1 | -0.162 | 1.83 | 3.32 | inactive |
| MSMP (microseminoprotein, prostate associated) | 2 | -0.705 | -1.99 | 2.46 | inactive |
| MSMP (microseminoprotein, prostate associated) | 3 | -1.03 | -4.29 | 1.59 | inactive |
| S100Z (S100 calcium binding protein Z) | 1 | -0.0269 | 2.78 | 4.6 | inactive |
| S100Z (S100 calcium binding protein Z) | 2 | 0.7 | 7.89 | 5.61 | inactive |
| S100Z (S100 calcium binding protein Z) | 3 | 0.275 | 4.9 | 4.31 | inactive |
| SEPTIN9 (septin 9) | 1 | -0.745 | -2.27 | 4.71 | inactive |
| SEPTIN9 (septin 9) | 2 | -0.693 | -1.91 | 3.23 | inactive |
| SEPTIN9 (septin 9) | 3 | 0.194 | 4.33 | 8.19 | inactive |
| ZNF627 (zinc finger protein 627) | 1 | 0.724 | 8.06 | 5.86 | inactive |
| ZNF627 (zinc finger protein 627) | 2 | 0.288 | 5 | 4.9 | inactive |
| ZNF627 (zinc finger protein 627) | 3 | -0.332 | 0.633 | 3.75 | inactive |
| NECTIN3 (nectin cell adhesion molecule 3) | 1 | 1.78 | 15.5 | 13.2 | inactive |
| NECTIN3 (nectin cell adhesion molecule 3) | 2 | 0.218 | 4.5 | 5.68 | inactive |
| NECTIN3 (nectin cell adhesion molecule 3) | 3 | -0.576 | -1.08 | 3.64 | inactive |
| MRAS (muscle RAS oncogene homolog) | 1 | 0.0412 | 3.26 | 7.68 | inactive |
| MRAS (muscle RAS oncogene homolog) | 2 | -0.101 | 2.26 | 4.91 | inactive |
| MRAS (muscle RAS oncogene homolog) | 3 | -1.24 | -5.78 | 1.89 | inactive |
| KLRF1 (killer cell lectin like receptor F1) | 1 | 0.985 | 9.9 | 10.4 | inactive |
| KLRF1 (killer cell lectin like receptor F1) | 2 | 0.884 | 9.19 | 7.64 | inactive |
| KLRF1 (killer cell lectin like receptor F1) | 3 | 0.254 | 4.75 | 5.62 | inactive |
| PSMA2 (proteasome 20S subunit alpha 2) | 1 | 4 | 31.1 | 16.4 | inactive |
| PSMA2 (proteasome 20S subunit alpha 2) | 2 | 4.26 | 33 | 16.6 | inactive |
| PSMA2 (proteasome 20S subunit alpha 2) | 3 | 0.836 | 8.85 | 7.21 | inactive |
| RPS28P4 (ribosomal protein S28 pseudogene 4) | 1 | 6.19 | 46.5 | 21.3 | active |
| RPS28P4 (ribosomal protein S28 pseudogene 4) | 2 | 4.47 | 34.4 | 16 | inactive |
| RPS28P4 (ribosomal protein S28 pseudogene 4) | 3 | 2.06 | 17.5 | 8.6 | inactive |
| KIR2DS1 | 1 | 1.96 | 16.7 | 12.1 | inactive |
| KIR2DS1 | 2 | -0.0314 | 2.75 | 5.31 | inactive |
| KIR2DS1 | 3 | 1.37 | 12.6 | 7.91 | inactive |
| EXOSC6 (exosome component 6) | 1 | 0.718 | 8.02 | 8.41 | inactive |
| EXOSC6 (exosome component 6) | 2 | 0.613 | 7.28 | 9.05 | inactive |
| EXOSC6 (exosome component 6) | 3 | 0.302 | 5.09 | 6.4 | inactive |
| KCNJ15 (potassium inwardly rectifying channel subfamily J member 15) | 1 | -0.555 | -0.939 | 4.95 | inactive |
| KCNJ15 (potassium inwardly rectifying channel subfamily J member 15) | 2 | 2.96 | 23.8 | 12.8 | inactive |
| KCNJ15 (potassium inwardly rectifying channel subfamily J member 15) | 3 | -0.399 | 0.162 | 4.44 | inactive |
